Data on 1 substance can be found in patent US20150353950A1, “TRANSGENIC PLANTS” (Durham University, priority 2012, published 2015).

Chains of the proteins cited; added tags and fusions are not shown. Residues count along the entry.
UniProt P55852, residues 1-93: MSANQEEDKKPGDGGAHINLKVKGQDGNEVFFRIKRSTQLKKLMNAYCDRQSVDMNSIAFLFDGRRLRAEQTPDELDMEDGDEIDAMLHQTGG

Assay [1] concerns the target T1, GID1a (purified, amine-coupled to a CM5 sensor chip) (Arabidopsis) (UniProt Q9MAA7).
T1 sequence: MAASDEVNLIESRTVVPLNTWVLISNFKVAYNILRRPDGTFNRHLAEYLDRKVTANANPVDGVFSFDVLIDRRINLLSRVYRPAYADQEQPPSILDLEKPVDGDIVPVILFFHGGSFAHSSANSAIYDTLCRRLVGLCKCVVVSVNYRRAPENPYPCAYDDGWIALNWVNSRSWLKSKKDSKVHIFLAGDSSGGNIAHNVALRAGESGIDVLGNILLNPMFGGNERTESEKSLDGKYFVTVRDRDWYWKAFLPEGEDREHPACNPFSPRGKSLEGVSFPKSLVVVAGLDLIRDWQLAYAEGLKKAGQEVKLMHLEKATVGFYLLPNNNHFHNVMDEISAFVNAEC
The experiment in a line: SPR, GID1a amine-coupled to CM5; RGA and AtS1 injected together with GA3; competitor RGA.

The target of assay [2] is T1, GID1a (purified, amine-coupled to a CM5 sensor chip) (Arabidopsis). In words: SPR sensorgram, GID1a on the chip.

These are yes or no findings as the source states them, for the method shown. Some results given as binding are weak or reduced against the parent protein; the word gives no strength.

Turning to SUMO1 (AtS1) (from UniProt P55852 1-93), the binding result in assay [1] and in assay [2] was “binds” in each case.
